Measurements reported in PubChem BioAssay AID1224826 (NIAID, 2016)

Screen: 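Genes that change LPS-induced Tnf promoter activity in mouse macrophages when knocked down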 (primary screen)
System: RAW264.7 G9 macrophages from mouse bearing reporters for p65 (GFP) and the Tnf promoter (mCherry)
Reagents: siRNA pool against mouse genes, 100 nM
Time to read-out: 16 h of LPS stimulation, after 2 days of siRNA transfection
Conditions: bacterial lipopolysaccharide (Salmonella minnesota R595), 10 ng/ml
Measured: 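Imaged Tnf reporter mCherry in nuclei, minus background, normalised per plate to the median and expressed as robust z-scores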
Reading the numbers: Tnf reporter robust z-score: higher = stronger Tnf promoter reporter signal after LPS
Rule for the call: 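a well counts as active at a score of -1.3 or below (Tlr4 knock-down control median) or above 3 (raised signal); controls and wells holding fewer than 50 cells are excluded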
Calls: active = Tnf reporter clearly lowered or raised; inactive = no clear change in Tnf reporter
Here is an unselected part of about 17,000 reagents. Over the whole deposit, about 1,110 (6.6%) got an active call. 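Active means lowered or raised reporter signal; replicate intensities are raw and not normalised per plate.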 A number with no mark means an inactive call. Further read-outs or replicates are left out here.

Zfp998 showed fewer than 50 cells in well fewer than 50 cells per well; well left out of calls.
For C130074G19Rik the deposit lists Tnf reporter robust z-score -0.31; fewer than 50 cells in well enough cells in well.
Antkmt showed Tnf reporter robust z-score -0.12; fewer than 50 cells in well enough cells in well.
Fgd2 scored Tnf reporter robust z-score 0.76; fewer than 50 cells in well enough cells in well.
Hrh2 gave Tnf reporter robust z-score -0.03; fewer than 50 cells in well enough cells in well.
With knock-down of Vac14, the record shows fewer than 50 cells in well fewer than 50 cells per well; well left out of calls.
Against Ddo the deposit lists Tnf reporter robust z-score 2.22; fewer than 50 cells in well enough cells in well.
Slc16a8 scored Tnf reporter robust z-score 3.71 (active); fewer than 50 cells in well enough cells in well.
Knock-down of Atp6v1c2 resulted in: Tnf reporter robust z-score -1.2; fewer than 50 cells in well enough cells in well.
After knock-down of Ndc80 the results were Tnf reporter robust z-score -0.34; fewer than 50 cells in well enough cells in well.
Against Cyp7b1 the deposit lists Tnf reporter robust z-score 0.17; fewer than 50 cells in well enough cells in well.
For Etfb the deposit lists Tnf reporter robust z-score -0.51; fewer than 50 cells in well enough cells in well.
Zbtb41 scored Tnf reporter robust z-score 0.53; fewer than 50 cells in well enough cells in well.
Arrdc4 gave Tnf reporter robust z-score -1.81 (active); fewer than 50 cells in well enough cells in well.
With knock-down of Gstt3 the results were Tnf reporter robust z-score 1.57; fewer than 50 cells in well enough cells in well.
For Wars1 the deposit lists Tnf reporter robust z-score -0.69; fewer than 50 cells in well enough cells in well.
After knock-down of Zfp459, the screen gave Tnf reporter robust z-score -0.43; fewer than 50 cells in well enough cells in well.
Against Abcb11, the values are Tnf reporter robust z-score 1.97; fewer than 50 cells in well enough cells in well.
Dgke showed Tnf reporter robust z-score 0.87; fewer than 50 cells in well enough cells in well.
Knock-down of Dhrs1 resulted in: Tnf reporter robust z-score 1.59; fewer than 50 cells in well enough cells in well.
For Mtrr the deposit lists Tnf reporter robust z-score 0.12; fewer than 50 cells in well enough cells in well.

A portion from the list above:
Cyp7b1 — Tnf reporter robust z-score = 0.17; fewer than 50 cells in well = enough cells in well
Etfb — Tnf reporter robust z-score = -0.51; fewer than 50 cells in well = enough cells in well
